Source: paper PMC7819943, “Rice protein-binding microarrays: a tool to detect cis-acting elements near promoter regions in rice”
Some of the results follow.

biological target: T1, OsSMF1 (Oryza sativa, UniProt Q6ZLB0 1-436); experiment: protein-binding microarray (RPBM); PBS, 2% BSA, 51.3 ng/ul salmon testes DNA, 50 uM zinc acetate, 200 nM TF, 25 C, 1 h; high values mean tight binding; conditions: protein: recombinant; tags: N-terminal polyhistidine and DsRed monomer fusion (pET32a); chain copies: 2; label: CyDye5-dUTP incorporated in the synthesized complementary strand; 3' TTTTT single-stranded linker to array surface; dsDNA, one strand shown
T1 sequence: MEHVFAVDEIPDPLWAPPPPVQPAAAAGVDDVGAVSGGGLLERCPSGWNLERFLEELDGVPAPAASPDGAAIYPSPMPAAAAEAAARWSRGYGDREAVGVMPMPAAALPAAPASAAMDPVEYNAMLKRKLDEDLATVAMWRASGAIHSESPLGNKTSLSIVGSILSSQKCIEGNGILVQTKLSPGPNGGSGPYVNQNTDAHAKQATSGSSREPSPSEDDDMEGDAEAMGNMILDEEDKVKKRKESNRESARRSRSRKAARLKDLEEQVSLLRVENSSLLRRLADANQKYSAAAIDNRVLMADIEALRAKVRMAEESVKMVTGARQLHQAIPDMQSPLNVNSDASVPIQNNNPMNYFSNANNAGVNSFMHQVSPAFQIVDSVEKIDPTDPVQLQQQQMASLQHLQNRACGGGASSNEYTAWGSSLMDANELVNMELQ
In short: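 Ni–NTA purification followed expression in E. coli BL21-CodonPlus of transcription factors fused N-terminally to a polyhistidine tag and DsRed. At 200 nM in PBS with 2% BSA, salmon testes DNA and 50 µM zinc acetate, the protein was incubated for 1 h at 25 °C with a custom Agilent array that had been primer-extended with Cy5-dUTP and blocked with 2% BSA. After washing, the array was read on an Axon 4000B scanner. The binding signal is per-feature fluorescence intensity in arbitrary units.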

| Sequence | binding signal |
| --- | --- |
| TATATGAGAAATACTTTGAAGTAAGTTATCGTGTCATGGACGGAGTCACCTAGTGCAG | 3360 fluorescence intensity (a.u.) |
| GTTCTTACAGTTGCATTCAGCTATGCTGACATGGAAGATTCGGAGTCACCTAGTGCAG | 7390 fluorescence intensity (a.u.) |
| AGTCTCATGACTGCTGCTATCTGAATCATCACCACGAGCTCGGAGTCACCTAGTGCAG | 4730 fluorescence intensity (a.u.) |
| GAAGCAGCAGTAGAGAGAGAGAGAGAACAAGTAAACTCTCCGGAGTCACCTAGTGCAG | 3160 fluorescence intensity (a.u.) |
| GGTCGACACATCGATTGCATGCCGTTTGTACATCTTGGCACGGAGTCACCTAGTGCAG | 4500 fluorescence intensity (a.u.) |
| ATAACCGCCCTAATTTACTTTAGCATACGTGGAGTACAAGCGGAGTCACCTAGTGCAG | 6900 fluorescence intensity (a.u.) |
| CGTCTACGTACGTCGCTGCCACGGTACAGGGAATCTGAGTCGGAGTCACCTAGTGCAG | 3500 fluorescence intensity (a.u.) |
| CTTAATGCGGCGTGACGCGCTCGTCAATCCGCTATAAGTGCGGAGTCACCTAGTGCAG | 3240 fluorescence intensity (a.u.) |
| GGTTCTCTTAAATGGACTGCACGTGTAAATGAGCTTATTTCGGAGTCACCTAGTGCAG | 3300 fluorescence intensity (a.u.) |
| ACGTAGCGGCTGAGTTAGCGTGGGACCCACGTGGGCCCCACGGAGTCACCTAGTGCAG | 5500 fluorescence intensity (a.u.) |
| AGCCTGCTATTGTACACACTCTAAGAGAACTAAAAGTAAACGGAGTCACCTAGTGCAG | 14300 fluorescence intensity (a.u.) |
| TGGAGGTAAATGAGAGAAACACCAGGAATCGCGTCATACGCGGAGTCACCTAGTGCAG | 26700 fluorescence intensity (a.u.) |
| GATAGAGTATATTTTGCCAGGTCACATCGAGATCGGAGTCCGGAGTCACCTAGTGCAG | 8380 fluorescence intensity (a.u.) |
| CCCTGGTCGCGCTCCACCTCGGCGTCGTCCGTGGCGGTCGCGGAGTCACCTAGTGCAG | 4330 fluorescence intensity (a.u.) |
| GGGGCCCTCCGGCCTCCGCTGCCACGTGAGGTGCGCCCAACGGAGTCACCTAGTGCAG | 5340 fluorescence intensity (a.u.) |
| CTGCAAAGCCAGCTGGTTCCATCTTCTCGTACAGCTCCCCCGGAGTCACCTAGTGCAG | 3320 fluorescence intensity (a.u.) |
| GTATCCCTCCATATTCGGCTACGTCATAGAGCTACAGACCCGGAGTCACCTAGTGCAG | 3740 fluorescence intensity (a.u.) |
| CCTCTCGCAACTAACCACGCCACGTATGCCGGGTCGCACCCGGAGTCACCTAGTGCAG | 17900 fluorescence intensity (a.u.) |
| CCTACCTGTCATACATATATTACGTCTTGTAGTCTATGCTCGGAGTCACCTAGTGCAG | 3290 fluorescence intensity (a.u.) |
| CATTGTGTGAAATTATTGTAATTGTAGAATAAGAGAATCACGGAGTCACCTAGTGCAG | 17400 fluorescence intensity (a.u.) |
| AAATAAAACCGTTTGTTTATAACACAACGGTAGCAAATGACGGAGTCACCTAGTGCAG | 3140 fluorescence intensity (a.u.) |

| Sequence | binding signal |
| --- | --- |
| TCTCCGCCGCCGCCGCCACCGTCACCCTCCTCGGCCTCCCCGGAGTCACCTAGTGCAG | 6040 fluorescence intensity (a.u.) |
| ACAAGTGAAAATTCTCCACGTTGGATCCAACCTAGTAAGCCGGAGTCACCTAGTGCAG | 5260 fluorescence intensity (a.u.) |
| GGCGGCGCCGGCGCTCGTCCTGCCGCCACCGCCGCGGCCGCGGAGTCACCTAGTGCAG | 3190 fluorescence intensity (a.u.) |
| CATTTCTTCTGAGTATTCAATGTTTCGTCCCCACGAAAATCGGAGTCACCTAGTGCAG | 33000 fluorescence intensity (a.u.) |
| CGTTCCTGCCTGAACGCACGCAAGGTGCTCGACGAAATGCCGGAGTCACCTAGTGCAG | 3510 fluorescence intensity (a.u.) |
| CGAAATGGGAGGCGGGGTTTAGGGTTTCCGGCGGGGAGGGCGGAGTCACCTAGTGCAG | 5780 fluorescence intensity (a.u.) |
| ACCATGTAGGCTATGACACAATGTATATTTGCTTTAGTTTCGGAGTCACCTAGTGCAG | 3730 fluorescence intensity (a.u.) |
| TAATCGATTTATTGATGTGAAAATTTTGCTTTGTCATGTCCGGAGTCACCTAGTGCAG | 3410 fluorescence intensity (a.u.) |
| ACATCAATCTTGAAAATCACGATGAACATGACGTGGATTTCGGAGTCACCTAGTGCAG | 10900 fluorescence intensity (a.u.) |
| CCCTCGTGGTCACCGCGCGATCACCCTTAAGTGGGTGTTCCGGAGTCACCTAGTGCAG | 3280 fluorescence intensity (a.u.) |
| GCCTCCTATAAAGCCCGCCACCTCGGTGTGCTTTGGGTGTCGGAGTCACCTAGTGCAG | 3590 fluorescence intensity (a.u.) |
| GATGTGAGTCGATCGATTGGTTGGGTGACAGGTGCGTGCTCGGAGTCACCTAGTGCAG | 3470 fluorescence intensity (a.u.) |
| GTCGATCGATCGCATCAACCCAACCCTACCAAATATAAATCGGAGTCACCTAGTGCAG | 3480 fluorescence intensity (a.u.) |
| TCTACGCGTAGATTTTGCTTTTCTTTGCTTTGCTTTCCAGCGGAGTCACCTAGTGCAG | 22700 fluorescence intensity (a.u.) |
| ATCATGGCAGTCCCAACCCTCCACCTAGGATATTGTCTATCGGAGTCACCTAGTGCAG | 3210 fluorescence intensity (a.u.) |
| CCTCGCCTCGTTTACGTGTCGCCCCGCCCATCCCGCGCGCCGGAGTCACCTAGTGCAG | 8500 fluorescence intensity (a.u.) |
| CCATGTGGGCCCCACCTGCGTCGCCACGTCAGCGTGCTCGCGGAGTCACCTAGTGCAG | 38800 fluorescence intensity (a.u.) |
| GGGGTGAAAATGAATTAGATGCCACGTGCAGGTTCGCATGCGGAGTCACCTAGTGCAG | 10000 fluorescence intensity (a.u.) |
| GTAATGTCAAATTAGTTTGATGTCTTCCTAAGTTTTGATACGGAGTCACCTAGTGCAG | 3220 fluorescence intensity (a.u.) |
| TTATGCAAATGTAAAAGATATAAATCACACTTAAAGTACTCGGAGTCACCTAGTGCAG | 33500 fluorescence intensity (a.u.) |
| CATCACATCACCAGAATCTATCACCTCTGTCACTGTTCTTCGGAGTCACCTAGTGCAG | 3720 fluorescence intensity (a.u.) |

Three neighbouring records already listed, quoted:

| Sequence | binding signal |
| --- | --- |
| TGGAGGTAAATGAGAGAAACACCAGGAATCGCGTCATACGCGGAGTCACCTAGTGCAG | 26700 fluorescence intensity (a.u.) |
| GATAGAGTATATTTTGCCAGGTCACATCGAGATCGGAGTCCGGAGTCACCTAGTGCAG | 8380 fluorescence intensity (a.u.) |
| CCCTGGTCGCGCTCCACCTCGGCGTCGTCCGTGGCGGTCGCGGAGTCACCTAGTGCAG | 4330 fluorescence intensity (a.u.) |
